Test results taken from patent US20230165252A1, “ACTIVE COMPOUND COMBINATIONS” (Bayer Aktiengesellschaft, priority 2020, published 2023).
“And” between values parts separate entries of the source, which are not always exact repeats. Equal values may be shown once. The name of at least one read-out is uncertain.

Tests used:
Type in all cases: cell-based
[1] = tested on: Fusarium culmorum; assay: in vitro-Test with Fusarium culmorum (microtiter growth inhibition)
Protocol: (§1) The degree of efficacy expressed in % is denoted: 0% means an efficacy, which corresponds to that of the control, while an efficacy of 100% means that no disease is observed.
(§2) If the actual fungicidal activity exceeds the calculated value, then the activity of the combination is super-additive, i.e. a synergistic effect exists. In this case, the efficacy, which was actually observed, must be greater than the value for the expected efficacy (E), that was calculated from the abovementioned formula.
(§3) Example: In Vitro-Test with Fungal Microorganisms
(§4) Wells of 96-well microtiter plates are filled with 10 μl of a preparation of test compound or compound combination in methanol+emulsifier alkylaryl-polyglycol-ether. Thereafter, the solvent is evaporated in a hood. At the next step, 100 μl of liquid potato dextrose medium is given into each well, that has been amended with an appropriate concentration of spores or mycelium suspension of the test fungus.
(§5) With the aid of a photometer, the extinction in all wells is measured at the wavelength of 620 nm.
(§6) The microtiter plates are incubated at 20° C. and 85% relative humidity. The inhibition of growth is determined again photometrically 3-5 days after the application. Efficacy is calculated in relation to the untreated control, 0% efficacy means fungal growth as high as in untreated control while 100% efficacy means no fungal growth is measured.

[2] = tested on: Cordana musae; assay: in vitro-Test with Cordana musae (microtiter growth inhibition); settings: single substance
Protocol: as §1, §2, §3, §4, §5, §6

[3] = tested on: Cercospora beticola; assay: in vitro-Test with Cercospora beticola (microtiter growth inhibition); settings: alone
Protocol: as §1, §2, §3, §4, §5, §6

[4] = tested on: Alternaria alternate; assay: in vitro-Test with Alternaria alternate (microtiter growth inhibition); settings: 1.0 ppm, alone
Protocol: as §1, §2, §3, §4, §5, §6

N#Cc1sc2c(=O)c3ccccc3c(=O)c=2sc1C#N [dithianon]
Efficacy ([1]; 4 ppm): 44%
Efficacy ([1]; 20 ppm): 99%

N#Cc1c[nH]cc1-c1cccc2c1OC(F)(F)O2 [fludioxonil]
Efficacy ([2]; 1.0 ppm): 13%
Efficacy ([2]; 5.0 ppm): 36%
Efficacy % ([3]; 1.0 ppm): 80% and 59%
Efficacy % ([3]; 5.0 ppm): 93%
Efficacy % [4]: 89%
Efficacy ([1]; 1.0 ppm): 94%

O=C1c2ccccc2C(=O)N1SC(Cl)(Cl)Cl [folpet]
Efficacy ([1]; 2 ppm): 63%

CC(C)(C)C(O)(CCc1ccc(Cl)cc1)Cn1cncn1 (centres unmarked) [tebuconazole]
Efficacy ([1]; 1.0 ppm): 100%

CON=C(C(=O)OC)c1ccccc1CON=C(C)c1cccc(C(F)(F)F)c1 [trifloxystrobin]
Efficacy ([1]; 0.2 ppm): 7% and 0% and 2%
